One substance from paper PMC7005700 can be followed below.

The chains behind the UniProt entries cited, without tags or fusion partners. Where a name states a change or a piece, a line headed by the entry shows the natural chain unless it says otherwise. A line that says so, or that is headed by a name, gives the form on record, which may keep a tag or linker.
UniProt P22415: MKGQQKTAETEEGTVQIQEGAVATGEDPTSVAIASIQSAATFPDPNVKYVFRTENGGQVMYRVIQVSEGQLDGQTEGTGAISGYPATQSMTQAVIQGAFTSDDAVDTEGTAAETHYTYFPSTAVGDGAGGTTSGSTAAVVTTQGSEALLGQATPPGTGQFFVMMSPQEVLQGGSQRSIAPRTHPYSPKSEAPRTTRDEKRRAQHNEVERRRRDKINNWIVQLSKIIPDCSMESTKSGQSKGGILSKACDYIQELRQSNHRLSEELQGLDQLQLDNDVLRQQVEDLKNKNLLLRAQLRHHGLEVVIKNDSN
Jmjd1c, endogenous in mouse liver (Q69ZK6, form named): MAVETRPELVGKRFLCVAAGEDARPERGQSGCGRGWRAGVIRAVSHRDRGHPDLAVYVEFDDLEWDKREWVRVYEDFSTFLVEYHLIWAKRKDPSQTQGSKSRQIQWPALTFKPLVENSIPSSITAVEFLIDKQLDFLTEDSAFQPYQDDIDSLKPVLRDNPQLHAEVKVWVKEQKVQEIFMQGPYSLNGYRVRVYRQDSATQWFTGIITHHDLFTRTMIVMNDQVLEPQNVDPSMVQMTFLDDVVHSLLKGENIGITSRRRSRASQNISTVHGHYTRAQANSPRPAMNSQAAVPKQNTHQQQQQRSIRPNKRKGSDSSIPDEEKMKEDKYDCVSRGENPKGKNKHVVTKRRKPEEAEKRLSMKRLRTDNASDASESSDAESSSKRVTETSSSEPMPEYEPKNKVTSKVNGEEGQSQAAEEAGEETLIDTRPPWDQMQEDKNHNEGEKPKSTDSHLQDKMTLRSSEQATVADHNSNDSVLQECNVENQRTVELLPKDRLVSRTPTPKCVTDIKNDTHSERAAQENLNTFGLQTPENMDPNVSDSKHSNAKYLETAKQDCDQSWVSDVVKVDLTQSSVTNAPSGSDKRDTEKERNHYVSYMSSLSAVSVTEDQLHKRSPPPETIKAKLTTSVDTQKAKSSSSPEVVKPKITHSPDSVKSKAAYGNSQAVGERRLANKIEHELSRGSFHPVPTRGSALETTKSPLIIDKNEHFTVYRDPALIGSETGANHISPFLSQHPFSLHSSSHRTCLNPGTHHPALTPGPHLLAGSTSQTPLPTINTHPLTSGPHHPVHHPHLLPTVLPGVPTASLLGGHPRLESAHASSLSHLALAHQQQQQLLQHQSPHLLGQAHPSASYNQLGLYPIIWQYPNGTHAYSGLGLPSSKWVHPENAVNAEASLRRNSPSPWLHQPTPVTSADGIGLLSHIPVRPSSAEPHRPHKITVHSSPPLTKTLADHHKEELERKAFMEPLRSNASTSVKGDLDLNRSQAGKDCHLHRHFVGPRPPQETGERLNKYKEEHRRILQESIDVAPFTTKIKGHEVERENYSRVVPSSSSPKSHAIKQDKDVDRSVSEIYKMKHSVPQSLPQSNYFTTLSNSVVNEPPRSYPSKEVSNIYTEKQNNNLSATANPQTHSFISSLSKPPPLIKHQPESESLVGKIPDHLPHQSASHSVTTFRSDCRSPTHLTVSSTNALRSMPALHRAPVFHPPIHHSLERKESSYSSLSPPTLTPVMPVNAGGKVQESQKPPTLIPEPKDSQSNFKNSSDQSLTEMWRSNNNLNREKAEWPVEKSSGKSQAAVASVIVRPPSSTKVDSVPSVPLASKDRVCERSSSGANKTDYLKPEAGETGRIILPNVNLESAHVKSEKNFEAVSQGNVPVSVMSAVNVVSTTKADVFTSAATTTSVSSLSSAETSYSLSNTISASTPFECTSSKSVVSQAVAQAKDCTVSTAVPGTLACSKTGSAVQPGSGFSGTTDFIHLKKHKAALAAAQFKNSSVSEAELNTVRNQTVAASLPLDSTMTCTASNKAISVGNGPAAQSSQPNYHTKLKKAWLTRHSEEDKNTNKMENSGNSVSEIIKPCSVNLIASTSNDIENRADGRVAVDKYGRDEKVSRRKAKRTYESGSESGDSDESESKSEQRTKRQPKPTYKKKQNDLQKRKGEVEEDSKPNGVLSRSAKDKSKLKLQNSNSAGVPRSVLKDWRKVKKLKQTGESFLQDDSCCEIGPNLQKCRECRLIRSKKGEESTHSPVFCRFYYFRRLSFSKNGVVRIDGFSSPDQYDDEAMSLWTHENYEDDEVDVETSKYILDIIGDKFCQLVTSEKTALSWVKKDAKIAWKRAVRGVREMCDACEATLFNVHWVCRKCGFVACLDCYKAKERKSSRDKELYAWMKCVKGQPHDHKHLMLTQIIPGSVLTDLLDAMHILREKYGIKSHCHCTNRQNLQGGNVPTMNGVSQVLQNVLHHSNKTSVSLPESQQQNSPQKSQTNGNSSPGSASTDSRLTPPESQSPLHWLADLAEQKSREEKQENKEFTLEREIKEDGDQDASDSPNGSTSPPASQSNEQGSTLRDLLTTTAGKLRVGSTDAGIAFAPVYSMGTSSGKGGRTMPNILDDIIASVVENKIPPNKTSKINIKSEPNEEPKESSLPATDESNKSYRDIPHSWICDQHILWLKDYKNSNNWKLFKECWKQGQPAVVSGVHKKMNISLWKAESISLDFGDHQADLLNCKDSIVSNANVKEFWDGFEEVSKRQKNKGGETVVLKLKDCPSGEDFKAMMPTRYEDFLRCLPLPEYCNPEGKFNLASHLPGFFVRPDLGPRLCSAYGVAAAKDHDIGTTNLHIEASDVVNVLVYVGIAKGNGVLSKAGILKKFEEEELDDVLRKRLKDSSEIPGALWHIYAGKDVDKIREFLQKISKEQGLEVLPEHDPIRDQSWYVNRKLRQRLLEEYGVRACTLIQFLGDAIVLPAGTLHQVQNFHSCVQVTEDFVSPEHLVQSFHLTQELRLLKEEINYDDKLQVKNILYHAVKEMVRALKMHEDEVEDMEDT

Results are given in words; binding and its absence hold for the method and conditions named. Binding seen in cells or lysates may run through a third protein. These calls come from enrichment with a bait or labelling near it, and not all partners need be listed.

For this assay, the target named is TAP-tagged USF-1 (UniProt P22415). Briefly: affinity purification with mass spectrometry; tandem affinity purification with TAP-tagged USF-1 as bait, incubated with liver nuclear extracts, then mass spectrometry.

For “Jmjd1c, endogenous in mouse liver (from UniProt Q69ZK6 1-2531)”, the binding entry is listed as “binds”.
